Laboratory results taken from publication PMC5809941.
These are yes or no findings as the source states them, for the method shown. Some results given as binding are weak or reduced against the parent protein; the word gives no strength. Sequences can lack the tags named with a protein.

Sequences of proteins named here, by UniProt entry; tags and fusion partners are left off.
UniProt Q9Y6K9: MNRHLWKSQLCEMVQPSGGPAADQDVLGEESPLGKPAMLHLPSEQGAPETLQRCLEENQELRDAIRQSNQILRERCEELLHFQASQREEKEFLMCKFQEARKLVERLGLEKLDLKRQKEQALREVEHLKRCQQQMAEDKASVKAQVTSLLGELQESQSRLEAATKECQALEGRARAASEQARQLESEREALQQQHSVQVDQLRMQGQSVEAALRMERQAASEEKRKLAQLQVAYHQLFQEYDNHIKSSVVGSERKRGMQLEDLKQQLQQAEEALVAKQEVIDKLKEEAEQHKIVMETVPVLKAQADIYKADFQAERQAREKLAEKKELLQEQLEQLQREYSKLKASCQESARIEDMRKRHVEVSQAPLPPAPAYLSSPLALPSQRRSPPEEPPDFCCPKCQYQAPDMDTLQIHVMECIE
UniProt P98170: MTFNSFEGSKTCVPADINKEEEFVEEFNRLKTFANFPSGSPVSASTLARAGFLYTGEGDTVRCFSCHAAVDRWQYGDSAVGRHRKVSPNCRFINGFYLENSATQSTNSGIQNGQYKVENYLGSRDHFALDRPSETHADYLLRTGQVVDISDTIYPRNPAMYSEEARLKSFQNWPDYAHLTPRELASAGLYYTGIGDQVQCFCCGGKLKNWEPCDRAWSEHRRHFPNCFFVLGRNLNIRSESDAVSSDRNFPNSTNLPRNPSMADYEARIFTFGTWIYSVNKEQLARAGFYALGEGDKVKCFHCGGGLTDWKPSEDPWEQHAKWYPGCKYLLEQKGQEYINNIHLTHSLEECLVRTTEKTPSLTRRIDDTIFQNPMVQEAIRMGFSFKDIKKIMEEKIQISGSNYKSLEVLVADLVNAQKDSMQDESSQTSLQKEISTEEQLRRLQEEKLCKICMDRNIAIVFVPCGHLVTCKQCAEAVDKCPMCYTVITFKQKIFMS
UniProt Q9NWF9: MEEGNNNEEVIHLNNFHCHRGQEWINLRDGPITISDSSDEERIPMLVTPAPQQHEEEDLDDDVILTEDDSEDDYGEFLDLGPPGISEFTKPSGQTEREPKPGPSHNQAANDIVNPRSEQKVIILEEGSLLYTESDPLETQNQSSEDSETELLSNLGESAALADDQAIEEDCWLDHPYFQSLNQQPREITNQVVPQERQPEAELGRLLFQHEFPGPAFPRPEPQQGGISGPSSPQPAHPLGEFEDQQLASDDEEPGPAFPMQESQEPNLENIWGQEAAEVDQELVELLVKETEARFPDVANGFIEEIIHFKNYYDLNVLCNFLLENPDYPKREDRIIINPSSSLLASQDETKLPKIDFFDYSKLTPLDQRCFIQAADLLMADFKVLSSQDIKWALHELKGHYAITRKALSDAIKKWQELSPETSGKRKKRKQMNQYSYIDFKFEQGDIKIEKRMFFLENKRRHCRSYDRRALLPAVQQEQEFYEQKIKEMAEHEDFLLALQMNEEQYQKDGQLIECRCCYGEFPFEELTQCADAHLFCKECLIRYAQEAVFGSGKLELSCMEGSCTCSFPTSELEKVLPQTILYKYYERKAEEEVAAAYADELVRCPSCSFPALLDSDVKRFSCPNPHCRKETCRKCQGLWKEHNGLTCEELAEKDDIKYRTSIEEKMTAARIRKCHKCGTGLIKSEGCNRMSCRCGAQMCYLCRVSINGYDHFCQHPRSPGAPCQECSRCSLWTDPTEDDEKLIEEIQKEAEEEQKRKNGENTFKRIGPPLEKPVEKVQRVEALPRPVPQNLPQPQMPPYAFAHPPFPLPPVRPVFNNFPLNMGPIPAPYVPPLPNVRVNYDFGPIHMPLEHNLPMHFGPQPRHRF
UniProt P28074: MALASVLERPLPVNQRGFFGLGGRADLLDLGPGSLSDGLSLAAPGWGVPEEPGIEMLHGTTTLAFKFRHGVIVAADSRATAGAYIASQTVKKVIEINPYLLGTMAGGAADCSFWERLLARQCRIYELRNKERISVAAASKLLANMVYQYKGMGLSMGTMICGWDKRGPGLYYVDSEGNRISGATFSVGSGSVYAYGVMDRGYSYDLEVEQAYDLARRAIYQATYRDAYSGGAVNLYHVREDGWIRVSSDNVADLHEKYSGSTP
UniProt Q9P286: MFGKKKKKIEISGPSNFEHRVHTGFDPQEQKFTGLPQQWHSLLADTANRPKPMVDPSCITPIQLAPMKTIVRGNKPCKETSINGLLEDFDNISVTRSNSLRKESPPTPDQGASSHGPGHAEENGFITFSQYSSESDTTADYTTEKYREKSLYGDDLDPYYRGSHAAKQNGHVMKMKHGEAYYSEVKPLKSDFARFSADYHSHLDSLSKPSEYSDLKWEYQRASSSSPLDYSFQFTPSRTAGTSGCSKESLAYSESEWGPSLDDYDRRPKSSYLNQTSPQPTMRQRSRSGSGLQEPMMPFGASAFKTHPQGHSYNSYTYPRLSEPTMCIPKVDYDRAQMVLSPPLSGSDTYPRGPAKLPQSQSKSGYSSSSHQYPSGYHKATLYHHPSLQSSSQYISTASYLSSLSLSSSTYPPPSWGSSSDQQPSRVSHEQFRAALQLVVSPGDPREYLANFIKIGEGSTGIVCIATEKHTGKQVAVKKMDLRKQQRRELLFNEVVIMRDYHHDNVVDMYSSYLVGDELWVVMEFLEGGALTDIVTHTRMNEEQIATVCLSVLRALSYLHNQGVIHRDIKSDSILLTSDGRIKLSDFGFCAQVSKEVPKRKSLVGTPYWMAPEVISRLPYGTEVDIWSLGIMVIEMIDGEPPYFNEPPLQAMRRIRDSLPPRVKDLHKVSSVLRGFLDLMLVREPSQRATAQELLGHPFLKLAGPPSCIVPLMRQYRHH

How the values were obtained:
Assay in all cases: wNAPPA (well nucleic acid programmable protein array)
IKBKG (human) = IKBKG (human) (UniProt Q9Y6K9)
BIRC4 (human) = BIRC4 (human) (UniProt P98170)
RNF216 (human) = RNF216 (human) (UniProt Q9NWF9)
PSMB5 (human) = PSMB5 (human) (UniProt P28074)
BIRC8 (human) = biological target: T1, BIRC8 (human) (UniProt Q96P09)
T1 sequence: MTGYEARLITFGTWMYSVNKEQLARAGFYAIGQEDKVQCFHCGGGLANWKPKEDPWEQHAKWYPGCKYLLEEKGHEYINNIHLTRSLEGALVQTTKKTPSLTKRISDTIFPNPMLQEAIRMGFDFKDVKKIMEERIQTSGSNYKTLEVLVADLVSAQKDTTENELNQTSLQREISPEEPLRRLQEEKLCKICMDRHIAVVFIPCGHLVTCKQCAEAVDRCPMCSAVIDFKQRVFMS

PAK7 (human) = PAK7 (human) (UniProt Q9P286)

Measured: binding

B1: PLEKHN1-HaloTag (protein, UniProt Q494U1 1-611)
chain: MGNSHCVPQAPRRLRASFSRKPSLKGNREDSARMSAGLPGPEAARSGDAAANKLFHYIPGTDILDLENQRENLEQPFLSVFKKGRRRVPVRNLGKVVHYAKVQLRFQHSQDVSDCYLELFPAHLYFQAHGSEGLTFQGLLPLTELSVCPLEGSREHAFQITGPLPAPLLVLCPSRAELDRWLYHLEKQTALLGGPRRCHSAPPQRRLTRLRTASGHEPGGSAVCASRVKLQHLPAQEQWDRLLVLYPTSLAIFSEELDGLCFKGELPLRAVHINLEEKEKQIRSFLIEGPLINTIRVVCASYEDYGHWLLCLRAVTHREGAPPLPGAESFPGSQVMGSGRGSLSSGGQTSWDSGCLAPPSTRTSHSLPESSVPSTVGCSSQHTPDQANSDRASIGRRRTELRRSGSSRSPGSKARAEGRGPVTPLHLDLTQLHRLSLESSPDAPDHTSETSHSPLYADPYTPPATSHRRVTDVRGLEEFLSAMQSARGPTPSSPLPSVPVSVPASDPRSCSSGPAGPYLLSKKGALQSRAAQRHRGSAKDGGPQPPDAPQLVSSAREGSPEPWLPLTDGRSPRRSRDPGYDHLWDETLSSSHQKCPQLGGPEASGGLVQWI
binds: IKBKG (human) | BIRC4 (human) | RNF216 (human) | PSMB5 (human) | BIRC8 (human) | PAK7 (human)
